Target: T1, CB1 receptors (Mus musculus, UniProt P47746)
T1 construct: from tissue; host or cells: mouse brain membranes
Type: biochemical
Settings: 1 μM compound, 30 min at 30° C.

Chains of the proteins cited; added tags and fusions are not shown.
UniProt P47746, whole entry: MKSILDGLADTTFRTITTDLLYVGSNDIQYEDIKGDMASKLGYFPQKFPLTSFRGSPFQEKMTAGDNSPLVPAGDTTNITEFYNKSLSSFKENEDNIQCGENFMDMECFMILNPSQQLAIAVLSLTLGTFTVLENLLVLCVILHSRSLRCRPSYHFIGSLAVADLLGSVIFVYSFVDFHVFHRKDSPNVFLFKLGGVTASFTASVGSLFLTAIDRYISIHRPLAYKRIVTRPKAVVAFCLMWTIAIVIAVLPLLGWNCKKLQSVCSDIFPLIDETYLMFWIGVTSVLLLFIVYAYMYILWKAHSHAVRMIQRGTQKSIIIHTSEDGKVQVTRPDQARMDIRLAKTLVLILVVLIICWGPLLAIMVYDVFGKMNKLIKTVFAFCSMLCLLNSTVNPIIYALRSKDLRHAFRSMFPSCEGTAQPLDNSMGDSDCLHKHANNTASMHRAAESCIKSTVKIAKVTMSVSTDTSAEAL

For `Cc1c(C(=O)NN2CCCCC2)nn(-c2ccc(Cl)cc2Cl)c1-c1ccc(I)cc1` [AM251], which G-protein activity is on record?
The G-protein activity was “inhibited”.
